The supplement of paper PMC10735217
Where a name gives a salt, the structure may show the parent alone. Some of the results follow. Repeats in this data set agree poorly, so a single value says little.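 Human kidney-derived cells stably carry a construct in which eight TEAD-binding elements drive luciferase, measured by luminescence in a drug-repurposing library screen. A hit is any compound whose signal exceeds the plate mean by more than five robust Z scores.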

Tested on: HEK293A TEAD-LUC reporter
Test: TEAD-luciferase reporter activity (YAP activation), robust Z score vs plate; higher = stronger YAP/TEAD activation
Settings: 24 h

Structure (SMILES) | TEAD-luciferase reporter activity (compound concentration: 200 nM) | TEAD-luciferase reporter activity (compound concentration: 2 uM) | TEAD-luciferase reporter activity (compound concentration: 10 uM)
CC(COc1ccc(N2CCN(c3ccncc3)CC2)cc1)CC(=O)O (configuration not stated) | inactive: -1.17 | inactive: 0.156 | inactive: 0.314
CC1(C)Oc2ncnc(N)c2N=C1c1ccc([C@H]2CC[C@H](CC(=O)O)CC2)cc1 | inactive: -0.626 | inactive: 0.108 | inactive: 0.886
Cc1ccc2c(c1)c(-c1ccccc1)[n+]1n2CCC1 | inactive: -1.64 | inactive: 0.274 | inactive: -0.862
CCn1ccnc1CC1COc2ccccc2O1 (configuration not stated) [Imiloxan hydrochloride] | inactive: -1.12 |  | inactive: -1.41
CCn1ccnc1CC1COc2ccccc2O1 (configuration not stated) [Imiloxan] |  | inactive: 1.64 | 
CC(=O)N1CCC2(CC1)CN(C(=O)CCCN(C)C)Cc1ccccc1O2 | inactive: -1.47 |  | active: 6.62
CSc1ccc(-c2nc3n(c2-c2ccncc2)CCC3)cc1 | inactive: 0.35 | inactive: -1.14 | inactive: 0.399
C[C@@H](NC(=O)c1ccccc1OC(=O)CCCC[n+]1ccccc1)C(N)=O [analog of AG-9901] | inactive: 0.76 | inactive: 0.302 | inactive: -0.515
O=C(NCc1ccc(OC(F)(F)F)c(F)c1)[C@H]1CN(c2nc3nc(C4CC4)ncc3s2)CCN1S(=O)(=O)c1ccc(C(F)(F)F)cc1 | inactive: 0.764 | inactive: 2.2 | inactive: 1.08
O=C(O)C1CC2CCC1CC2 (configuration not stated) | inactive: -0.823 |  | inactive: 0.141
O=C(O)C1CC2CCC1CC2 (configuration not stated) [Sacricin] |  | inactive: -1.03 | 
CCn1ccnc1 [1-ethyl-1H-imidazole] | inactive: 0.508 | inactive: -0.968 | inactive: -1.48
CN(C(=O)c1c(O)c2ccccc2n(C)c1=O)c1ccccc1 [Roquinimex] | inactive: -0.374 | inactive: -1.53 | inactive: -1.4
CC(C)(CO)n1cc(C(=O)c2cncc(NC(=O)Cc3ccc(Cl)cn3)c2)c2cnc(N)nc21 | inactive: -1.29 | inactive: -2.2 | inactive: -0.252
COc1cccc2[nH]c3c4c(c5c(c3c12)C(=O)N(CN1CCN(C)CC1)C5=O)CCC4 | inactive: -1.07 | inactive: -0.181 | inactive: -0.176
O=C(O)C(=O)Nc1cccc(-c2nnn[nH]2)c1 [acitazanolast] | inactive: 1.43 | inactive: -0.919 | inactive: -0.334
CCO/N=C(\C(=O)N[C@@H]1C(=O)N2C(C(=O)O)=C(Sc3nc(-c4cc[n+](C)cc4)cs3)CS[C@H]12)c1nsc(NP(=O)(O)O)n1 [Ceftaroline fosamil] | inactive: -0.557 | inactive: -1.62 | inactive: 2.06
CC(C)=CCC[C@](C)(O[C@@H]1O[C@H](CO[C@@H]2OC[C@H](O)[C@H](O)[C@H]2O)[C@@H](O)[C@H](O)[C@H]1O)[C@H]1CC[C@]2(C)[C@@H]1[C@H](O)C[C@@H]1[C@@]3(C)CC[C@H](O[C@@H]4O[C@H](CO)[C@@H](O)[C@H](O)[C@H]4O[C@@H]4O[C@H](CO)[C@@H](O)[C@H](O)[C@H]4O)C(C)(C)C3CC[C@]12C (some centres not stated) [Ginsenoside Rb2] | inactive: -0.929 | inactive: 0.623 | inactive: -0.518
c1cc(OCCCc2nnn[nH]2)cc(OCc2ccc3ccccc3n2)c1 | inactive: 0.853 | inactive: -1.36 | inactive: 0.0673

Structure (SMILES) | TEAD-luciferase reporter activity (compound concentration: 200 nM) | TEAD-luciferase reporter activity (compound concentration: 2 uM) | TEAD-luciferase reporter activity (compound concentration: 10 uM)
CN(C(=O)CO/N=C(\c1ccccc1)c1ccc2c(c1)CN1CC(=O)NC1=N2)C1CCCCC1 | inactive: -1.33 | inactive: -0.421 | inactive: 3.73
CN1CCC(=C2c3ccccc3CCn3c(C=O)cnc32)CC1 [alcaftadine] | inactive: -1.37 | inactive: -0.631 | active: 5.85
CC(=O)Nc1ccc(O)cc1 [acetaminophen] |  | inactive: 0.23 | 
CC(=O)Nc1ccc(O)cc1 [acetaminophen, Kowa] | inactive: -1.37 |  | inactive: 0.605
O=C(CSCCO)NCCCOc1cccc(CN2CCCCC2)c1 | inactive: 0.211 | inactive: -1.23 | inactive: -0.594
O=C1Nc2ccc(Cl)cc2[C@@](/C=C/C2CC2)(C(F)(F)F)N1 | inactive: -2.02 | inactive: 0.588 | inactive: 2.58
CC(=O)Nc1c(I)c(C(=O)O)c(I)c(N(C)C(C)=O)c1I | inactive: -0.893 | inactive: -0.848 | inactive: 2.16
CN1CCCC1CCNS(=O)(=O)c1ccc2c(c1)CN(CC1CCCCC1)CC2 (configuration not stated) | inactive: 0.81 | inactive: 1.74 | inactive: -0.401
CC(=O)c1ccc(O)c(O)c1O | inactive: 0.959 | inactive: 0.446 | inactive: 3.56
Cc1[nH]c(=O)c(C#N)cc1-c1ccc2nccn2c1 [lopri    hydrochloride] |  | inactive: -1.6 | 
Cc1[nH]c(=O)c(C#N)cc1-c1ccc2nccn2c1 [lopri   hydrochloride] |  |  | inactive: -0.0125
Cc1[nH]c(=O)c(C#N)cc1-c1ccc2nccn2c1 [lopri hydrochloride] | inactive: -1.94 |  | 
Fc1ccc2[nH]c3c(c2c1)CN(CCc1ccncc1)CC3 | inactive: -1.36 | inactive: -1.23 | inactive: 0.266
CCCCCc1c(-c2ccc3cc(OCc4nnn[nH]4)ccc3c2)n(Cc2ccccc2)c2ccccc12 [diaplasinin] | inactive: -0.528 | inactive: -0.568 | inactive: -0.958
Cc1[nH]c(/C=C2\C(=O)Nc3ccccc32)c(C)c1CCC(=O)O [orantinib] |  | inactive: 0.2 | 
Cc1[nH]c(/C=C2\C(=O)Nc3ccccc32)c(C)c1CCC(=O)O | inactive: -1.81 |  | inactive: -0.368
C#Cc1cccc(Nc2ncnc3cc(OC)c(OCCCCCCC(=O)NO)cc23)c1 | active: 6.64 | active: 18.4 | active: 40.2
c1ccc(-c2nn3c(c2-c2ccnc4cc(OCCN5CCOCC5)ccc24)CCC3)nc1 | inactive: -1.8 | inactive: -1.41 | inactive: -2.99

Retrieved one by one from the entries so far (three):
Structure (SMILES) | TEAD-luciferase reporter activity (compound concentration: 200 nM) | TEAD-luciferase reporter activity (compound concentration: 2 uM) | TEAD-luciferase reporter activity (compound concentration: 10 uM)
Cc1ccc2c(c1)c(-c1ccccc1)[n+]1n2CCC1 | inactive: -1.64 | inactive: 0.274 | inactive: -0.862
COc1cccc2[nH]c3c4c(c5c(c3c12)C(=O)N(CN1CCN(C)CC1)C5=O)CCC4 | inactive: -1.07 | inactive: -0.181 | inactive: -0.176
Cc1[nH]c(/C=C2\C(=O)Nc3ccccc32)c(C)c1CCC(=O)O [orantinib] |  | inactive: 0.2 | 
